{"source": "the supplement of paper PMC8728848", "binders": {"B1": {"name": "Epa11 (Candida glabrata) (protein)", "chain": "MGSSHHHHHHSSGLVPRGSHMASSNAPNYPVGCSPSVGTQLTPGLSLEVYAYPMDGNNGYCWNATYKDPEFPRSGYLKNKLLGKADGVVGPLNFLAKNKDCSPKVDTLPAGFNFPQPITVTNFTMVLFGYLAPKQSGKYTFKLLADDLLLLNLGATNAFDCCNREATKNNLGEFLAYNLWPNQDKNVTVYLEKGVYYPLRLFFNNRDGGSQLDFSYYFNDSPAPLTDFSGMFFSVPDGAECPARI"}}, "test_in_all_cases": "glycan array binding signal (z-score within array); higher = stronger binding", "conditions_in_all_cases": "glycan notation: IUPAC condensed, linker removed", "key": {"[1]": {"target": "Gal(a1-3)GalNAc", "procedure,_shortened": "(§1)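 The binding signal is a Z-score computed within each array and averaged over linkers. Arrays of the same protein sequence at different concentrations or buffers were also averaged together. Data originate from 3228 arrays in the Consortium for Functional Glycomics database, kept only where the protein sequence was available.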"}, "[2]": {"target": "Gal(a1-3)[Gal(a1-4)]Gal(b1-4)GlcNAc", "procedure,_shortened": "as §1"}, "[3]": {"target": "Gal(a1-4)Gal(b1-3)GlcNAc(b1-2)Man(a1-3)[Gal(a1-4)Gal(b1-3)GlcNAc(b1-2)Man(a1-6)]Man(b1-4)GlcNAc(b1-4)GlcNAc", "procedure,_shortened": "as §1"}, "[4]": {"target": "Gal(a1-4)Gal(b1-4)Glc", "procedure,_shortened": "as §1"}, "[5]": {"target": "Gal(a1-4)Gal(b1-4)GlcNAc", "procedure,_shortened": "as §1"}, "[6]": {"target": "Gal(a1-4)Gal(b1-4)GlcNAc(b1-2)Man(a1-3)[Gal(a1-4)Gal(b1-4)GlcNAc(b1-2)Man(a1-6)]Man(b1-4)GlcNAc(b1-4)GlcNAc", "procedure,_shortened": "as §1"}, "[7]": {"target": "Gal(a1-4)Gal(b1-4)GlcNAc(b1-3)Gal(b1-4)Glc", "procedure,_shortened": "as §1"}, "[8]": {"target": "Gal(a1-4)GlcNAc", "procedure,_shortened": "as §1"}, "[9]": {"target": "Gal(a1-6)Glc", "procedure,_shortened": "as §1"}, "[10]": {"target": "Gal(b1-2)Gal", "procedure,_shortened": "as §1"}, "[11]": {"target": "Gal(b1-3)Gal", "procedure,_shortened": "as §1"}, "[12]": {"target": "Gal(b1-3)Gal(b1-4)GlcNAc", "procedure,_shortened": "as §1"}, "[13]": {"target": "Gal(b1-3)GalNAc", "procedure,_shortened": "as §1"}, "[14]": {"target": "Gal(b1-3)GalNAc(a1-3)[Fuc(a1-2)]Gal(b1-4)Glc", "procedure,_shortened": "as §1"}, "[15]": {"target": "Gal(b1-3)GalNAc(a1-3)[Fuc(a1-2)]Gal(b1-4)GlcNAc", "procedure,_shortened": "as §1"}, "[16]": {"target": "Gal(b1-3)GalNAc(b1-3)Gal", "procedure,_shortened": "as §1"}, "[17]": {"target": "Gal(b1-3)GalNAc(b1-3)Gal(a1-4)Gal(b1-4)Glc", "procedure,_shortened": "as §1"}, "[18]": {"target": "Gal(b1-3)GalNAc(b1-4)Gal(b1-4)Glc", "procedure,_shortened": "as §1"}, "[19]": {"target": "Gal(b1-3)GalNAc(b1-4)[Neu5Ac(a2-3)]Gal(b1-4)Glc", "procedure,_shortened": "as §1"}, "[20]": {"target": "Gal(b1-3)GlcNAc", "procedure,_shortened": "as §1"}, "[21]": {"target": "Gal(b1-3)GlcNAc(a1-3)Gal(b1-4)GlcNAc", "procedure,_shortened": "as §1"}, "[22]": {"target": "Gal(b1-3)GlcNAc(a1-6)Gal(b1-4)GlcNAc", "procedure,_shortened": "as §1"}, "[23]": {"target": "Gal(b1-3)GlcNAc(b1-2)Man", "procedure,_shortened": "as §1"}, "[24]": {"target": "Gal(b1-3)GlcNAc(b1-2)Man(a1-3)[Gal(b1-3)GlcNAc(b1-2)Man(a1-6)]Man(b1-4)GlcNAc(b1-4)GlcNAc", "procedure,_shortened": "as §1"}, "[25]": {"target": "Gal(b1-3)GlcNAc(b1-2)Man(a1-3)[Gal(b1-3)GlcNAc(b1-2)Man(a1-6)]Man(b1-4)GlcNAc(b1-4)[Fuc(a1-6)]GlcNAc", "procedure,_shortened": "as §1"}, "[26]": {"target": "Gal(b1-3)GlcNAc(b1-2)Man(a1-3)[GlcNAc(b1-4)][Gal(b1-3)GlcNAc(b1-2)Man(a1-6)]Man(b1-4)GlcNAc(b1-4)GlcNAc", "procedure,_shortened": "as §1"}, "[27]": {"target": "Gal(b1-3)GlcNAc(b1-2)[Gal(b1-3)GlcNAc(b1-6)]Man(a1-6)[Gal(b1-3)GlcNAc(b1-2)Man(a1-3)]Man(b1-4)GlcNAc(b1-4)GlcNAc", "procedure,_shortened": "as §1"}, "[28]": {"target": "Gal(b1-3)GlcNAc(b1-3)Gal(b1-3)GlcNAc", "procedure,_shortened": "as §1"}, "[29]": {"target": "Gal(b1-3)GlcNAc(b1-3)Gal(b1-4)Glc", "procedure,_shortened": "as §1"}, "[30]": {"target": "Gal(b1-3)GlcNAc(b1-3)Gal(b1-4)GlcNAc", "procedure,_shortened": "as §1"}, "[31]": {"target": "Gal(b1-3)GlcNAc(b1-3)Gal(b1-4)GlcNAc(b1-2)Man(a1-3)[Gal(b1-3)GlcNAc(b1-3)Gal(b1-4)GlcNAc(b1-2)Man(a1-6)]Man(b1-4)GlcNAc(b1-4)GlcNAc", "procedure,_shortened": "as §1"}, "[32]": {"target": "Gal(b1-3)GlcNAc(b1-3)Gal(b1-4)GlcNAc(b1-2)[Gal(b1-3)GlcNAc(b1-3)Gal(b1-4)GlcNAc(b1-6)]Man(a1-6)[Gal(b1-3)GlcNAc(b1-3)Gal(b1-4)GlcNAc(b1-2)Man(a1-3)]Man(b1-4)GlcNAc(b1-4)[Fuc(a1-6)]GlcNAc", "procedure,_shortened": "as §1"}, "[33]": {"target": "Gal(b1-3)GlcNAc(b1-3)Gal(b1-4)GlcNAc(b1-3)Gal(b1-4)GlcNAc(b1-2)[Gal(b1-3)GlcNAc(b1-3)Gal(b1-4)GlcNAc(b1-3)Gal(b1-4)GlcNAc(b1-6)]Man(a1-6)[Gal(b1-3)GlcNAc(b1-3)Gal(b1-4)GlcNAc(b1-3)Gal(b1-4)GlcNAc(b1-2)Man(a1-3)]Man(b1-4)GlcNAc(b1-4)[Fuc(a1-6)]GlcNAc", "procedure,_shortened": "as §1"}, "[34]": {"target": "Gal(b1-3)GlcNAc(b1-3)Gal(b1-4)GlcNAc(b1-6)[Gal(b1-3)GlcNAc(b1-3)]Gal(b1-4)Glc", "procedure,_shortened": "as §1"}, "[35]": {"target": "Gal(b1-3)GlcNAc(b1-3)Gal(b1-4)[Fuc(a1-3)]GlcNAc", "procedure,_shortened": "as §1"}, "[36]": {"target": "Gal(b1-3)GlcNAc(b1-3)Gal(b1-4)[Fuc(a1-3)]GlcNAc(b1-6)[Gal(b1-3)GlcNAc(b1-3)]Gal(b1-4)Glc", "procedure,_shortened": "as §1"}, "[37]": {"target": "Gal(b1-3)GlcNAc(b1-3)GalNAc", "procedure,_shortened": "as §1"}, "[38]": {"target": "Gal(b1-3)GlcNAc(b1-6)Gal(b1-4)GlcNAc", "procedure,_shortened": "as §1"}}, "note": "Some of the results follow.", "data": [{"binder": "B1", "values": [{"measurement": "glycan array binding signal (z-score)", "setting": "[1]", "result": 0.558}, {"measurement": "glycan array binding signal (z-score)", "setting": "[2]", "result": -0.22}, {"measurement": "glycan array binding signal (z-score)", "setting": "[3]", "result": 1.7}, {"measurement": "glycan array binding signal (z-score)", "setting": "[4]", "result": -0.311}, {"measurement": "glycan array binding signal (z-score)", "setting": "[5]", "result": 0.12}, {"measurement": "glycan array binding signal (z-score)", "setting": "[6]", "result": 0.138}, {"measurement": "glycan array binding signal (z-score)", "setting": "[7]", "result": -0.48}, {"measurement": "glycan array binding signal (z-score)", "setting": "[8]", "result": 1.12}, {"measurement": "glycan array binding signal (z-score)", "setting": "[9]", "result": 1.6}, {"measurement": "glycan array binding signal (z-score)", "setting": "[10]", "result": -0.377}, {"measurement": "glycan array binding signal (z-score)", "setting": "[11]", "result": -0.015}, {"measurement": "glycan array binding signal (z-score)", "setting": "[12]", "result": -0.445}, {"measurement": "glycan array binding signal (z-score)", "setting": "[13]", "result": -0.012}, {"measurement": "glycan array binding signal (z-score)", "setting": "[14]", "result": 0.498}, {"measurement": "glycan array binding signal (z-score)", "setting": "[15]", "result": 0.575}, {"measurement": "glycan array binding signal (z-score)", "setting": "[16]", "result": -0.185}, {"measurement": "glycan array binding signal (z-score)", "setting": "[17]", "result": -0.286}, {"measurement": "glycan array binding signal (z-score)", "setting": "[18]", "result": -0.851}, {"measurement": "glycan array binding signal (z-score)", "setting": "[19]", "result": -0.305}, {"measurement": "glycan array binding signal (z-score)", "setting": "[20]", "result": -0.003}, {"measurement": "glycan array binding signal (z-score)", "setting": "[21]", "result": 0.848}, {"measurement": "glycan array binding signal (z-score)", "setting": "[22]", "result": -0.399}, {"measurement": "glycan array binding signal (z-score)", "setting": "[23]", "result": 1.14}, {"measurement": "glycan array binding signal (z-score)", "setting": "[24]", "result": -0.179}, {"measurement": "glycan array binding signal (z-score)", "setting": "[25]", "result": -0.006}, {"measurement": "glycan array binding signal (z-score)", "setting": "[26]", "result": -0.064}, {"measurement": "glycan array binding signal (z-score)", "setting": "[27]", "result": -0.365}, {"measurement": "glycan array binding signal (z-score)", "setting": "[28]", "result": -0.623}, {"measurement": "glycan array binding signal (z-score)", "setting": "[29]", "result": -0.214}, {"measurement": "glycan array binding signal (z-score)", "setting": "[30]", "result": -0.623}, {"measurement": "glycan array binding signal (z-score)", "setting": "[31]", "result": -0.34}, {"measurement": "glycan array binding signal (z-score)", "setting": "[32]", "result": 0.613}, {"measurement": "glycan array binding signal (z-score)", "setting": "[33]", "result": 0.496}, {"measurement": "glycan array binding signal (z-score)", "setting": "[34]", "result": 0.112}, {"measurement": "glycan array binding signal (z-score)", "setting": "[35]", "result": 0.446}, {"measurement": "glycan array binding signal (z-score)", "setting": "[36]", "result": -0.626}, {"measurement": "glycan array binding signal (z-score)", "setting": "[37]", "result": -0.639}, {"measurement": "glycan array binding signal (z-score)", "setting": "[38]", "result": -0.407}]}]}
